Experimental data: PubChem BioAssay AID2685 (National Center for Advancing Translational Sciences (NCATS), 2010)
The whole screen tested about 320,000 compounds, of which about 2,100 (0.66%) were called active. Inconclusive means that the source gave no clear call. Such entries were picked first, then a sample of the others. The call rests on the fitted dose curve; in most records, active means well fitted inhibition curve with a large enough effect in the signal ratio, with a control signal flat (not every such curve was filed as active); inconclusive means small, poorly fitted or top-dose-only effect, or effect the other way, or a change in a side signal; inactive means flat fitted curve, though single readings scatter; the % refers to the signal ratio. Potencies beside an inconclusive call are fits to weak or partial responses and may not hold up.

Experiment: qHTS Assay for Lipid Storage Modulators in Drosophila S3 Cells
Settings: BODIPY lipid droplet fluorescence, 18-24 h, cells fed with added oleic acid; lipid storage change, negative = inhibition: at 46.1 µM (top of the series) unless noted
Method in brief: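 Laser-scanning cytometry quantifies lipid droplet accumulation (500–530 nm total intensity; droplet/cell object ratio) in oleic acid-fed (400 uM added) Drosophila S3 cells treated with a concentration series. 20 uM Triacsin C defined 100% inhibition.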
On the % scale 0 is the no-effect control and ±100 the full control effect; potency means the concentration at half of the fitted maximal effect.

SMILES | lipid storage change, negative = inhibition | Potency
Cc1c(CN(C)C)c2c(n1Cc1ccccc1)C(=O)c1ccccc1-2 | inconclusive: 66.9% | –
C/C(=N\NC(=S)NC1CCCCC1)c1cccc(C(F)(F)F)c1 | inconclusive: 3.47% | –
O=C(COC(=O)c1ccco1)c1ccc(F)cc1 | inconclusive: -101% | –
COc1ccc(C[C@H](N)C(=O)N[C@H]2[C@@H](O)[C@H](n3cnc4c(N(C)C)ncnc43)O[C@@H]2CO)cc1 | inconclusive: -10.9% | –
O=C(NC(=S)Nc1ccccc1N1CCCC1)c1cccc(F)c1 | inconclusive: 19.2% [at 9.22 µM] | –
O=C(NNS(=O)(=O)c1ccc2ccccc2c1)c1cccs1 | inconclusive: 19.8% | –
CCSc1nnc(N)s1 | inconclusive: -62.9% | –
O=C(c1ncn[nH]1)N1CCN(c2nc(-c3ccccc3)cs2)CC1 | inconclusive: 15.6% | –
CCc1ccc(OCC(=O)OC(C)C(=O)Nc2ccc(Cl)cn2)cc1 (configuration not stated) | inconclusive: -18.9% | –
CCCn1c(SCC(=O)Nc2c(C)cccc2CC)nnc1C(C)C | – | inconclusive: 1.64 µM [activator, partial curve]
O=C1NCC(O)=C1C=NC12CC3CC(CC(C3)C1)C2 | inconclusive: 16% | –
CCN(CC)c1ccc(/C=C(\C#N)C(=O)NCc2ccccc2)cc1 | – | inconclusive: 29.1 µM [falling, single point]
CC(C)Cc1nc(N2CCN(C(=O)c3ccccc3)CC2)c(C#N)c2c1CCC2 | – | inconclusive: 20.6 µM [falling, single point]
Cc1cccc(N2CC(O)(c3cccs3)[N+]3=C2CCCC3)c1 (configuration not stated) | – | inconclusive: 20.6 µM [cytotoxic, single point]
Cc1ccc(S(=O)(=O)N2CCC(c3nnc(SCCN4CCCC4)n3C)CC2)cc1 | inconclusive: 38.7% | –
CCOc1cc(-c2nc(C)c(C(C)=O)n2O)ccc1OCC(=O)Nc1ccc(F)cc1 | inconclusive: 11.2% | –
CC(C)(C)NC(=O)c1cccc(NC(=O)CSc2ccc(Cl)cc2)c1 | inconclusive: -22.4% | –
CCCCN1C(=O)C(=O)N(CC(=O)c2ccc3c(c2)CCCC3)C1=O | inconclusive: 16.8% | –
Cc1ccccc1-n1nc(C)c2cc(C(=O)N3CCOCC3)sc21 | inactive | –
CCOc1ccc(S(=O)(=O)N(C)CC(=O)NCc2ccccn2)cc1Cl | – | inconclusive: 0.116 µM [falling, full curve, poor fit]
Cn1c(=O)c2c(ncn2Cc2cccc(Cl)c2)n(C)c1=O | inconclusive: -31.3% | –
Cc1noc(NS(=O)(=O)c2ccc(NC(=O)c3ccc(OC(C)C)cc3)cc2)c1C | – | inconclusive: 4.11 µM [falling, single point]
O=C(NCC1(c2ccccc2)CCCC1)c1ccccc1Br | inconclusive: 22% | –
COc1ccc(C(C#N)N2CCCCCC2)cc1OC (configuration not stated) | inconclusive: -7.85% | –
Nc1nc2c(c(=O)[nH]1)CN(Cc1ccccc1)CC2 | inconclusive: 8.84% | –
Cc1cc(O)cc2c1C(=O)/C(=C/c1ccco1)O2 | inconclusive: -11.2% | –

A few values from the results shown:
lipid storage change, negative = inhibition, Nc1nc2c(c(=O)[nH]1)CN(Cc1ccccc1)CC2 is entered as inconclusive: 8.84%
lipid storage change, negative = inhibition, Cc1cc(O)cc2c1C(=O)/C(=C/c1ccco1)O2 is entered as inconclusive: -11.2%

Further structures

SMILES | lipid storage change, negative = inhibition | Potency
CCN(CCO)C(=O)c1ccc2oc(Cc3ccc(Cl)cc3)nc2c1 | – | inconclusive: 7.31 µM [activator, partial curve, poor fit]
Cn1c(CCN2CCN(c3ccccn3)CC2)nc2cc(NC(=O)COc3ccc([N+](=O)[O-])cc3)ccc21 | – | inconclusive: 3.26 µM [falling, partial curve, poor fit]
O=C(C1CCC1)N1CCN(S(=O)(=O)c2ccc([N+](=O)[O-])cc2)CC1 | – | inconclusive: 1.84 µM [falling, partial curve]
Cc1ccc(Nc2ncc3c(n2)CC(C)(C)CC3=O)cc1 | inconclusive: -34.4% [at 0.369 µM] | –
O=c1ccc(Oc2nc(N3CCCCC3)nc(N3CCCCC3)n2)n[nH]1 | inconclusive: 34.4% | –
COc1ccccc1N1CCN(C(=O)c2oc3ccc(Br)cc3c2C)CC1 | inconclusive: -10.3% | –
COc1ccccc1N1CCN(C(=O)c2oc3ccc(F)cc3c2C)CC1 | inconclusive: 12.5% | –
COc1ccc(NCc2cc3ccccc3[nH]c2=O)cc1 | inconclusive: 26.3% | –
COCc1cc(C)nc2sc(C(=O)Nc3ccccc3F)c(N)c12 | inconclusive: -43.7% | –
O=C(Nc1ccccc1)c1ccsc1 | inconclusive: 1.9% | –
O=C(NCC(O)c1ccc2ccccc2c1)c1c(F)cccc1F (configuration not stated) | inactive | –
O=C(CCN1CCCCCC1)Nc1ccc2c(c1)OCCO2 | – | inconclusive: 6.51 µM [cytotoxic, single point]
CS(=O)(=O)N(CC(=O)Nc1cccc([N+](=O)[O-])c1)c1ccccc1F | inconclusive: 107% | –
COC(=O)c1ccc([C@@H](O)[C@H](C)C(=O)CC(=O)OC(C)(C)C)cc1 | inconclusive: -18.1% | –
CCCCn1c2c(c(=N)c3ccccc31)CCC2 | inconclusive: -25% | –
O=C(Cn1cc([N+](=O)[O-])cn1)Nc1ccc(Cn2cc(Br)cn2)cc1 | inconclusive: 28.5% | –
COc1ccc(C(=O)Nc2cc(C(F)(F)F)ccc2-n2cncn2)cc1 | inconclusive: -2.93% | –
CCOc1ccc(OCC)c(S(=O)(=O)NC2CC(C)(C)NC(C)(C)C2)c1 | inconclusive: -9.39% | –
Cc1cc(C)n2nc(C(=O)OCC(=O)N(Cc3ccccc3)C(C)C)nc2n1 | inconclusive | –
Cn1c(NC(=O)C2CCCC2)cc(=O)n(C)c1=O | – | inconclusive: 0.13 µM [falling, full curve, poor fit]
Cc1ccc(NC(=O)C2CCN(S(=O)(=O)c3c(C)n[nH]c3C)CC2)nc1 | inconclusive: -6.77% | –
Cc1ccc(-c2c(C#N)c(N)n(-c3ccccc3)c(=O)c2C#N)cc1 | – | inconclusive: 5.8 µM [falling, partial curve, poor fit]
CCCCCCCCCC(=O)N1CCN(c2cc3c(cc2F)c(=O)c(C(=O)O)cn3CC)CC1 | inconclusive: 5.07% | –
C[C@H]([C@@H](N)C(=O)N[C@@H](C(=O)O)[C@@H]1O[C@H](n2ccc(=O)[nH]c2=O)[C@@H](O)[C@H]1O)[C@@H](O)c1ccc(O)cn1 | inconclusive: 7.3% | –
COc1ccc(OC(=O)COc2cc(C)ccc2C)cc1 | inconclusive: -0.937% | –
COc1ccc(CC(=O)Nc2nc(-c3ccccc3)c(C(C)=O)s2)cc1OC | – | inconclusive: 29.1 µM [rising, single point]

SMILES | lipid storage change, negative = inhibition | Potency
Cc1ccc(N(C(=O)c2csnn2)C(C(=O)NC2CCCC2)c2ccccn2)cc1 (configuration not stated) | – | inconclusive: 0.731 µM [falling, single point]
S=C(NCCc1ccccc1)N/N=C/C1CCCCC1 | – | inconclusive: 0.13 µM [rising, full curve, poor fit]
COCc1nc2c([nH]1)c(=O)n(C)c(=O)n2CC(C)C | inconclusive: 10.8% | –
CCOC(=O)C1CCN(C(=O)C2CCN(c3ncnc4c3nc3n4CCCCC3)CC2)CC1 | inconclusive: 12.5% | –
Cc1ccccc1C(=O)Nc1nnc(-c2ccc(C(C)(C)C)cc2)s1 | inconclusive: -11.4% | –
Cc1nn2c(-c3ccc(S(=O)(=O)N4CCN(C)CC4)o3)nnc2c2ccccc12 | inconclusive: -44% | –
COc1ccc(CCNC(=S)N2CCN(S(=O)(=O)c3ccc(C)cc3)CC2)cc1 | inconclusive | –
COc1ccc(CNC(=O)c2ccc(NS(=O)(=O)c3ccc4[nH]c(=O)[nH]c4c3)cc2)cc1OC | – | inconclusive: 6.51 µM [falling, single point]
CCc1noc(C)c1C(=O)NCCc1ccc(F)cc1 | inconclusive | –
COc1ccccc1NC(=O)COc1cc(C)nc(C(C)C)n1 | – | inconclusive: 14.6 µM [activator, partial curve]
COc1ccc(NC(=O)CSc2nncc3ccccc23)cc1 | – | inconclusive: 23.1 µM [rising, single point]
O=C(O)CCc1ccc(-c2cccs2)n1NC(=O)c1ccc(O)cc1 | inactive | –
CCCNC(=O)Cc1c(OC)ccc2cc(Br)ccc12 | inconclusive: 19.3% | –
Cc1ccc(C)c(-c2cc(C(=O)N/N=C/c3cccnc3)c3ccccc3n2)c1 | – | inconclusive: 8.2 µM [falling, partial curve]
Cc1nc(SCC(=O)Nc2c(C)n(C)n(-c3ccccc3)c2=O)nc(C)c1C | – | inconclusive: 9.2 µM [activator, partial curve]
Clc1ccc(-c2cc(CSc3cccc(Cl)c3)on2)cc1 | inconclusive: 11.6% | –
Cc1ccc(C(=O)O)cc1NC(=O)Nc1cccc2ccccc12 | inconclusive: 2.38% | –
CCc1nc2ccccc2c(C(=O)OCC(=O)NCc2ccc3c(c2)OCO3)c1C | inconclusive: 17.4% | –
O=C(c1ccco1)N1CCN(S(=O)(=O)N2CCOCC2)CC1 | – | inconclusive: 0.13 µM [falling, full curve, poor fit]
CSc1ccccc1OCc1cc(C(=O)NCCCc2ccccc2)no1 | – | inconclusive: 0.164 µM [falling, full curve, poor fit]
Cc1ccccc1OCCNc1cc(N2CCNCC2)ccc1[N+](=O)[O-] | – | inconclusive: 29.1 µM [activator, single point]
COC(=O)c1ccc(Oc2cc(C)nc(-n3nc(C)cc3C)n2)cc1 | inconclusive: 24.4% | –
Cc1ccc(N2C(=O)c3cccc4c(C(=O)O)ccc(c34)C2=O)cc1 | inconclusive: 47.9% | –
COc1ccc(N(CC(=O)NCCc2ccccc2)C(=O)c2csnn2)cc1OC | inconclusive: -3.4% | –
O=C(O)C1CCCCC1C(=O)NCCc1ccncc1 (configuration not stated) | – | inconclusive: 0.058 µM [falling, full curve, poor fit]

A second format for part of the listing above:

| SMILES | lipid storage change, negative = inhibition | Potency |
| --- | --- | --- |
| Clc1ccc(-c2cc(CSc3cccc(Cl)c3)on2)cc1 | inconclusive: 11.6% | – |
| Cc1ccc(C(=O)O)cc1NC(=O)Nc1cccc2ccccc12 | inconclusive: 2.38% | – |
| CCc1nc2ccccc2c(C(=O)OCC(=O)NCc2ccc3c(c2)OCO3)c1C | inconclusive: 17.4% | – |
| O=C(c1ccco1)N1CCN(S(=O)(=O)N2CCOCC2)CC1 | – | inconclusive: 0.13 µM [falling, full curve, poor fit] |
